Experimental data taken from patent US8211465B2, “Immediate release and sustained release ibuprofen dosing regimen” (McNeil-PPC, Inc., priority 2007, dated 2012).

Assay: Therapeutic duration of action of an immediate release dose (from product labeling)

SMILES	ATDAIRD (average therapeutic duration of action of an effective immediate release dose)
COc1ccc2cc([C@H](C)C(=O)O)ccc2c1 [Naproxen, naproxen]	10 h
CC(C(=O)O)c1cccc(C(=O)c2ccccc2)c1 (centres unmarked) [ketoprofen]	5 h
